Measurements as given in PMC11162770, “The mutation R107Q alters mtSSB ssDNA compaction ability and binding dynamics” (Nucleic Acids Research, 2024).

How the values were obtained:
[1] = molecular target: T1, mtSSB WT-Alexa555/647 (human) (UniProt Q04837); experiment: EMSA; settings: Alexa555, 10 mM Mg2+, 2 mM ATP, labelling checked for effect on binding, EMSA: 20 mM Tris-HCl pH 7.8, 10 mM MgCl2, 0.1 mg/ml BSA, 10 mM DTT, 10% glycerol, room temperature, recombinant protein, residues 17-148, label: 5' ATTO647 (ATTO647N in Fig S1), single-stranded DNA
T1 sequence (looked up): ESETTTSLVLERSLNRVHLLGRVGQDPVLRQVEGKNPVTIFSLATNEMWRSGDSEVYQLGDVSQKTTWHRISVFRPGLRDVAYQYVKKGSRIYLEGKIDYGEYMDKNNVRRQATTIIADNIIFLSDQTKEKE

[2] = molecular target: T2, mtSSB WT (His-tag, C-terminal Cys) (human) (UniProt Q04837); experiment: EMSA; settings: 10 mM Mg2+, 2 mM ATP, 100-200 nM monomer, EMSA: 20 mM Tris-HCl pH 7.8, 10 mM MgCl2, 0.1 mg/ml BSA, 10 mM DTT, 10% glycerol, room temperature, recombinant protein, residues 17-148, protein details: N-terminal His, extra C-terminal Cys, label: 5' ATTO647 (ATTO647N in Fig S1), single-stranded DNA
T2 sequence (looked up): T1 sequence (looked up)

## GTTAGTTGGGGGGTGACTGTTA [22-nt oligonucleotide]
[1]
  binding result: binds
[2]
  binding result: binds

For at least one entry, the source does not settle the construct or the ends of the probe. At least one verdict was read from the data and is not stated in words by the source. Where a protein sequence is shown, tags need not be part of it.
